Measurements as given in doi:10.1101/2020.03.15.993147.
These are yes or no findings as the source states them, for the method shown. In cells and extracts the contact can be indirect. Here binding means that the protein was enriched with, or labelled near, the bait; the list need not be complete.

By UniProt entry, the sequences of proteins in these tests, tags left out. Where a name states a change or a piece, a line headed by the entry shows the natural chain unless it says otherwise.
UniProt P35240: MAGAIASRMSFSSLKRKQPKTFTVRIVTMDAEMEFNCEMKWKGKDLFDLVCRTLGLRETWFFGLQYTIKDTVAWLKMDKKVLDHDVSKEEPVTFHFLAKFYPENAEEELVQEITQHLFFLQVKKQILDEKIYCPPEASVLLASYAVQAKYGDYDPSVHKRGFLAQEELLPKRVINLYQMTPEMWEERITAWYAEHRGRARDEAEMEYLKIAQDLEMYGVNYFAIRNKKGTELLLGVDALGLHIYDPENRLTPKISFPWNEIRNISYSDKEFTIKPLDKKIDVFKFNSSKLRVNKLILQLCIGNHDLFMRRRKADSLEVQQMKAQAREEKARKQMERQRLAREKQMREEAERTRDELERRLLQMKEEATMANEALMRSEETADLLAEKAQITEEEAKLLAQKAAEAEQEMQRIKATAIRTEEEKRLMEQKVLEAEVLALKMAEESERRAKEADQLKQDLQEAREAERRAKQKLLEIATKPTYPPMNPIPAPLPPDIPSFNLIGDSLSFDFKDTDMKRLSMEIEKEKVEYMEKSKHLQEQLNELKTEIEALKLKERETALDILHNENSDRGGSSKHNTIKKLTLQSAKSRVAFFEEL
UniProt P27986: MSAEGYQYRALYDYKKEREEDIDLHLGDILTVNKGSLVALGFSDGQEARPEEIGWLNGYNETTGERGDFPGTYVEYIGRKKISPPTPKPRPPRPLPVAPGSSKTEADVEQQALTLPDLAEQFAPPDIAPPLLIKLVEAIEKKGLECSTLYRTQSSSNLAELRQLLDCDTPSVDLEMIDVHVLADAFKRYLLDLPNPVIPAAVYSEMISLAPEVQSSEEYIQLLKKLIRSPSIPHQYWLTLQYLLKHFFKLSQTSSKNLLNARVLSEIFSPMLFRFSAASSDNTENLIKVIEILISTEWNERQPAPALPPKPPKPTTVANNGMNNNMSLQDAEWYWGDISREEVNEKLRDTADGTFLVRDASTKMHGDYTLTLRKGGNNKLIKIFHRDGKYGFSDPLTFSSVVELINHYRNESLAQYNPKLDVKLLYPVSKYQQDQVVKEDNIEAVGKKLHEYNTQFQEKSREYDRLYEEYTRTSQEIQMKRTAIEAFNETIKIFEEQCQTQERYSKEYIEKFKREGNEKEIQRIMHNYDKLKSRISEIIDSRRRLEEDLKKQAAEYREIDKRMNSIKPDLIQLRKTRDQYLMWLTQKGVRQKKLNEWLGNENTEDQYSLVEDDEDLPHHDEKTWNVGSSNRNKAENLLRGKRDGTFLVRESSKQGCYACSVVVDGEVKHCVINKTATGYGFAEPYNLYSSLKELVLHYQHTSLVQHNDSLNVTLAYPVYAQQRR
UniProt O00459: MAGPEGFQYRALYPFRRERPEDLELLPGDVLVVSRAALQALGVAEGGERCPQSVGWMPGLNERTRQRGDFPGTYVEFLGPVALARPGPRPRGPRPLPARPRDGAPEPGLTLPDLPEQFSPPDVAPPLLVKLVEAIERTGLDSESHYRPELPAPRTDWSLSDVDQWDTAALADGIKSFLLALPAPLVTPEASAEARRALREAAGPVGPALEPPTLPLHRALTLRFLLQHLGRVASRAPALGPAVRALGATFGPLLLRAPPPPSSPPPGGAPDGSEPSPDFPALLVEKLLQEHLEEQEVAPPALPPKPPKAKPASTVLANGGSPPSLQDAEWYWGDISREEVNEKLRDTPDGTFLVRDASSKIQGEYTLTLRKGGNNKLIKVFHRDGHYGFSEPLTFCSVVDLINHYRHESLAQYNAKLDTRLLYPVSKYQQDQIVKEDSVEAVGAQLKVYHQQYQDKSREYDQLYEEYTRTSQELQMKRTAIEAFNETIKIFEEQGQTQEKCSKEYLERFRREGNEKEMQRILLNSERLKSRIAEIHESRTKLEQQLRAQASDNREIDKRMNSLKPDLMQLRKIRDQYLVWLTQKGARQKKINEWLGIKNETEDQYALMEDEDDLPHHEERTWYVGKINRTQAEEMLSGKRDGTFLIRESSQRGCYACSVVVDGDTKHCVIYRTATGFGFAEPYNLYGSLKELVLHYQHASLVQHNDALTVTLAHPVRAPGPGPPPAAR
UniProt Q9Y6W5: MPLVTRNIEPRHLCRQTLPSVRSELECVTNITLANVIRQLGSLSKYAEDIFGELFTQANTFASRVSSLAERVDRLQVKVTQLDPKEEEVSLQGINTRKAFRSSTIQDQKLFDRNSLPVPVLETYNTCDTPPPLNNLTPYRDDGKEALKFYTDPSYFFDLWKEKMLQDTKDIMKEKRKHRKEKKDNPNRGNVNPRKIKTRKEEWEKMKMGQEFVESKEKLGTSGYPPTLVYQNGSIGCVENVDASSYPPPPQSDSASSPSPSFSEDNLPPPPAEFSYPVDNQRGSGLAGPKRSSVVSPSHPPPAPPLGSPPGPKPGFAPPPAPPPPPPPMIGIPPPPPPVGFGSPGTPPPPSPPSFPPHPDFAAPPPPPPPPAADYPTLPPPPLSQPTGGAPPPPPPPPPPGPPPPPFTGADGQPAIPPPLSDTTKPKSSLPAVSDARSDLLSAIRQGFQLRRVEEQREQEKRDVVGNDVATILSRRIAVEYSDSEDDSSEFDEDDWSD
UniProt P05556: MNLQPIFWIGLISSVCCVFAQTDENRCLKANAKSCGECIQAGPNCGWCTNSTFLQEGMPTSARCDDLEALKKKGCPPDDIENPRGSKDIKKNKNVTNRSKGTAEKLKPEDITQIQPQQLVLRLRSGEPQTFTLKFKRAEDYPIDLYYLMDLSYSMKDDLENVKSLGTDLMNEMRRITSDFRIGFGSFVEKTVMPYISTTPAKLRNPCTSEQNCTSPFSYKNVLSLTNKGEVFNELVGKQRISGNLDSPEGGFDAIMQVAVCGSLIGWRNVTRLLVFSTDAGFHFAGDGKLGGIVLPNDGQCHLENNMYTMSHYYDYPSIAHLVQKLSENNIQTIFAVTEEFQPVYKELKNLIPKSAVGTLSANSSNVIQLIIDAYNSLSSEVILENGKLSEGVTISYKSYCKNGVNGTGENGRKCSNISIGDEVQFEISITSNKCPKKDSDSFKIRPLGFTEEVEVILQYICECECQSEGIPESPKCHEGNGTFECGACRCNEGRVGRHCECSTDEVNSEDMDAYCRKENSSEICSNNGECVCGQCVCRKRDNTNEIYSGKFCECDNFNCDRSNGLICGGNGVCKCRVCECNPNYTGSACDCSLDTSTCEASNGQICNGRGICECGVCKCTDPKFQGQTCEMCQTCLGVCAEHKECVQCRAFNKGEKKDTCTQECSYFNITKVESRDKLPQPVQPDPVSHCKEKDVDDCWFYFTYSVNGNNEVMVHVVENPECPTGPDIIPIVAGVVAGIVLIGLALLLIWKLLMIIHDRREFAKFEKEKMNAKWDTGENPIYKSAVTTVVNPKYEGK
UniProt P49023: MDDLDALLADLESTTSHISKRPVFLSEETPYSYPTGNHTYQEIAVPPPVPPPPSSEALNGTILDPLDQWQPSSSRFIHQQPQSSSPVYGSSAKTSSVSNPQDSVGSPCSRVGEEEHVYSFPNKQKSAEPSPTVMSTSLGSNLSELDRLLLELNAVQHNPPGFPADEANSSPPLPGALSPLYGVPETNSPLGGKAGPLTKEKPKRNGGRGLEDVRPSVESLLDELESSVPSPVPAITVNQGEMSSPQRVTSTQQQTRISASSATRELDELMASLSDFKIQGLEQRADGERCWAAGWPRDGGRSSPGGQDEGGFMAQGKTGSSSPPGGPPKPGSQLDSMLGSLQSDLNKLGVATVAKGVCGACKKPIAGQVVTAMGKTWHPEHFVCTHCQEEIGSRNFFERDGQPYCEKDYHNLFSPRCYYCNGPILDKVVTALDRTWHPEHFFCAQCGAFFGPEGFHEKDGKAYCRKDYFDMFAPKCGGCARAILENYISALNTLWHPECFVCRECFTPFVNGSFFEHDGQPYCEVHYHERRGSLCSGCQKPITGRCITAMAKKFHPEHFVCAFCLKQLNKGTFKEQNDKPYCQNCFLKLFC

target: AXL-BirA*-HA (human) (UniProt P30530); assay: proximity labelling

binding, binds:
merlin (from UniProt P35240 1-595)
vinculin (from UniProt P18206-2)
p85α, regulatory subunit of class IA PI3Ks (from UniProt P27986 1-724)
p85β, regulatory subunit of class IA PI3Ks (from UniProt O00459 1-728)
WAVE2 (from UniProt Q9Y6W5 1-498)
integrin β1 (from UniProt P05556 21-798)
paxillin (from UniProt P49023 1-591)
